Test results: patent publication US20080287532A1, “OXACYCLOPENTENE-2 DERIVATIVES” (priority 2007, published 2008)
Some of these results come from one statement about several compounds together. Some compounds share one range, which may span the group rather than tell each member.

Test system: cellular immune response (T-cells response) to SRBC
Experiment: Delayed Type Hypersensitivity test (DTH), foot pad edema after SRBC challenge
Parameters: species or system mice
Settings: mouse, in vivo
Description: The method of Lagrange et al. was used. Mice were sensitized intravenously (iv) with 10^5 SRBC in saline. After 4 days, the mice were given eliciting dose of the antigen: 10^8 SRBS in 20 mcl of sterile saline into right hind paw, left hind paw was injected with 20 mcl of sterile saline. In 24 hours after challenge, the foot pad edema volume was measured using a caliper. The difference in volume (mcl) between the right paw (antigen-injected) and left paw (saline-injected) is calculated (Δ) and used as edema volume.

Row | SMILES | Cellular immune response increased
1 | CCCCCCCCCC1C(C(=O)OCC)=C(C)OC1OC (centres unmarked) [Example 3] | 2-3.5 times
2 | COC1OC(C)=C(C(=O)O)C1CC(C)C (centres unmarked) [Example 9] | 2-3.5 times
